Measurements reported in patent US12616706B2, “Compositions and methods of use comprising substances with neural plasticity actions administered at non-psychedelic/psychotomimetic dosages and formulations” (Arbormentis LLC, priority 2019, dated 2026).
Like-named read-outs stand apart in the source and are kept apart here. At least one structure is not confirmed: it was looked up by name or label, or the drawing left a doubt.

Chains of the proteins cited; added tags and fusions are not shown.
UniProt P28223, whole entry: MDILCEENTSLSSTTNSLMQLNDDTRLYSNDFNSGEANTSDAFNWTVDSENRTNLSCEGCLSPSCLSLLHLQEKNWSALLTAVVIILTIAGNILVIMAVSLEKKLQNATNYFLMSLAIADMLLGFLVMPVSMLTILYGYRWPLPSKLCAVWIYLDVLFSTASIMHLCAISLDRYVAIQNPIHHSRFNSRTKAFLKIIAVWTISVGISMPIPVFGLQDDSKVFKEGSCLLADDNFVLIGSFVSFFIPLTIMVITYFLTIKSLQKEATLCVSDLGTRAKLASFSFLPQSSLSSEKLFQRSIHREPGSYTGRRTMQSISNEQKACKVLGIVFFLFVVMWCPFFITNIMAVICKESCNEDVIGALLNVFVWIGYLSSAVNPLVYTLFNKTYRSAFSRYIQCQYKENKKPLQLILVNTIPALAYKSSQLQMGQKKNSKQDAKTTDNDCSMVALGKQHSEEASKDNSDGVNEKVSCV

Key:
[1] = system: Western Diet fed rats; test: Oral glucose tolerance test; format: in vivo, rat
[2] = system: reactive oxygen species; test: ROS production in rat livers (DCFDA method); format: in vivo; details: WD rats, 0.05 mg/kg 15 days
[3] = system: IL-10; test: IL-10 gene expression in rat livers (qRT-PCR); format: in vivo; details: WD rats, 0.05 mg/kg 15 days; without reaching normal levels
[4] = system: GPAT4; test: GPAT4 gene expression in rat livers (qRT-PCR); details: WD rats, 0.05 mg/kg 15 days; physiological levels not restored
[5] = target: 5-HT2A receptor (Homo sapiens, UniProt P28223); parameters: host or cells: human brain in vivo (PET); details: cited from earlier work
[6] = system: TNF-α; test: TNF-α plasma level (ELISA); format: in vivo, rat; details: WD rats, 0.05 mg/kg 15 days; vs standard (p<0.05) and Western diet (p<0.01)
[7] = system: Western Diet fed rats; test: Liver histology (hematoxylin-eosin), hepatic steatosis; details: WD rats treated with psilocybin vs WD
[8] = system: SREPB2; test: SREPB2 gene expression in rat livers (qRT-PCR); details: WD rats, 0.05 mg/kg 15 days; physiological levels not restored
[9] = system: IL-6; test: IL-6 gene expression in rat livers (qRT-PCR); format: in vivo; details: WD rats, 0.05 mg/kg 15 days
[10] = Body and liver weight at sacrifice, WD rats; format: in vivo, rat; details: 0.05 mg/Kg for 15 days
[11] = system: CCL2; test: CCL2 gene expression in rat livers (qRT-PCR); format: in vivo; details: WD rats, 0.05 mg/kg 15 days; decreasing tendency
[12] = system: IL-6; test: IL-6 plasma level (ELISA); format: in vivo, rat; details: WD rats, 0.05 mg/kg 15 days; tendency similar to TNF-α

For `CN(C)CCc1c[nH]c2cccc(OP(=O)(O)O)c12` [psilocybin], the “Increase of glycemic peak caused by WD, oral glucose tolerance test” value ([1]; 0.05 mg/kg gastric gavage 15 days vs vehicle, 15 minutes from glucose gavage) was “counteracted”, the “Oral glucose tolerance test curve” value ([1]; WD rats, 0.05 mg/kg gastric gavage 15 days) was “comparable to the SD group” and the “Hepatic ROS production” value [2] was “able to restore physiological ROS levels”. For the same compound, the “IL-10 gene expression in liver” value [3] was “decreased significantly”, the “GPAT4 gene expression in liver” value [4] was “significant drop of their expression” and the 5-HT2A receptor occupancy ([5]; oral dose of 3 mg IR psilocybin) was 42.9%. For the same compound, the 5-HT2A receptor occupancy ([5]; tested higher doses of psilocybin) was “up to 72.4%”, the TNF-α plasma concentration [6] was “dramatically decreased” and the “Hepatic steatosis at histology” value [7] was “dramatic reduction of steatosis”. The “SREPB2 gene expression in liver” value [8] was “significant drop of their expression”, the “IL-6 gene expression in liver” value [9] was “restoring the physiological IL-6 levels” and the “Body weight at sacrifice” value [10] was “able to counteract this WD-induced body and liver weight increase”. For the same compound, the “Liver weight at sacrifice” value [10] was “able to counteract this WD-induced body and liver weight increase”, the “CCL2 gene expression in liver” value [11] was “didn't affect this increase significantly” and the IL-6 plasma levels [12] was “no significant differences”.
